Measured data: PubChem BioAssay AID1259424 (University of Nebraska Medical Center, 2018)
Purpose: 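Seek colon cancer survival genes behaving like KSR1, using a six-gene signature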 (primary screen). Cell system: human HCT116 colon cancer cells. Reagent: siRNA pool against human genes, 50 nM. Detection: 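Six signature mRNAs by branched-DNA multiplex assay, scaled to two housekeeping genes and non-targeting median, log2; matched to mean KSR1 knockdown profile by Pearson correlation and euclidean distance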. Direction: mean correlation with KSR1 profile and KSR1 correlation: higher = expression change more like KSR1 knockdown; mean distance from KSR1 profile: higher = expression change less like KSR1 knockdown.
In all, the deposit lists about 14,000 reagents; below is a random part of them. 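Higher correlation or smaller distance means closer resemblance to KSR1 loss; control wells, including KSR1 knockdowns, recur on many plates.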 Some reagents were tested in more than one well and are listed for each. Not stated in the record: the time to read-out.

target gene | PubChem SID | mean correlation with KSR1 profile | mean distance from KSR1 profile | KSR1 correlation, replicate 1 | KSR1 correlation, replicate 2 | KSR1 correlation, replicate 3
JHY (GeneID 79864) | SID364003073 | 0.733 | 1.03 | 0.78 | 0.721 | 0.664
MRPL34 (GeneID 64981) | SID364002662 | 0.0785 | 2.09 | 0.0998 | -0.146 | -0.0414
CXCL12 (GeneID 6387) | SID363991927 | 0.288 | 2.36 | 0.187 | 0.44 | 0.107
ZNF484 (GeneID 83744) | SID364005190 | 0.741 | 1.54 | 0.604 | 0.74 | 0.76
TXNDC15 (GeneID 79770) | SID364002999 | 0.775 | 1.81 | 0.774 | 0.809 | 0.668
TBCC (GeneID 6903) | SID363994326 | -0.114 | 1.91 | -0.0779 | 0.0622 | -0.378
CIDEC (GeneID 63924) | SID364002322 | -0.241 | 2.71 | -0.357 | -0.486 | -0.114
RRP15 (GeneID 51018) | SID363999827 | -0.363 | 3.15 | -0.231 | -0.282 | -0.388
TMEM165 (GeneID 55858) | SID364001103 | -0.562 | 3.81 | -0.406 | -0.421 | -0.764
TFCP2 (GeneID 7024) | SID363996546 | -0.242 | 2.39 | -0.291 | -0.0344 | 0.0838
ZNF462 (GeneID 58499) | SID364002108 | 0.547 | 3.78 | 0.34 | 0.701 | 0.729
IGHV5-78 (GeneID 28387) | SID364004876 | -0.532 | 3.08 | -0.353 | -0.678 | -0.659
PEX10 (GeneID 5192) | SID363993785 | -0.179 | 1.22 | -0.609 | -0.23 | 0.189
DEPDC1 (GeneID 55635) | SID364000523 | -0.256 | 3.08 | -0.392 | -0.148 | 0.0799
MEGF11 (GeneID 84465) | SID364003987 | -0.407 | 3.29 | -0.514 | -0.236 | -0.572
PHKA1 (GeneID 5255) | SID363993805 | 0.611 | 1.69 | 0.58 | 0.676 | 0.42
DEFA5 (GeneID 1670) | SID364001951 | -0.0885 | 2.11 | 0.301 | -0.281 | -0.321
MMP11 (GeneID 4320) | SID363996807 | 0.111 | 3.24 | 0.113 | 0.0714 | 0.0724
MLNR (GeneID 2862) | SID363992765 | -0.239 | 2.82 | -0.381 | -0.0852 | -0.248
ACMSD (GeneID 130013) | SID364004548 | -0.0978 | 2.03 | 0.0414 | -0.0273 | -0.201
ADGRL2 (GeneID 23266) | SID363998215 | 0.624 | 1.55 | 0.591 | 0.593 | 0.657
TMEM163 (GeneID 81615) | SID364003497 | 0.473 | 1.59 | 0.0301 | 0.508 | 0.637
SIK2 (GeneID 23235) | SID363999354 | -0.0458 | 2.12 | 0.208 | -0.16 | -0.495
IMPDH1 (GeneID 3614) | SID363992169 | -0.351 | 1.92 | -0.453 | -0.636 | -0.551
SETD4 (GeneID 54093) | SID364000315 | -0.0308 | 3.86 | -0.13 | 0.169 | 0.0824
SLC33A1 (GeneID 9197) | SID363995692 | -0.231 | 1.74 | 0.0309 | -0.254 | -0.272
STAT6 (GeneID 6778) | SID363994292 | -0.626 | 3.62 | -0.539 | -0.581 | -0.754
SRD5A2 (GeneID 6716) | SID363991680 | 0.184 | 1.98 | 0.201 | 0.144 | 0.192
DKKL1 (GeneID 27120) | SID363998836 | -0.51 | 1.57 | -0.669 | -0.718 | -0.434
DHRS4 (GeneID 10901) | SID364001945 | -0.273 | 1.99 | -0.156 | -0.469 | -0.279
ZNF516 (GeneID 9658) | SID364005624 | -0.413 | 1.46 | -0.335 | -0.116 | -0.156
ZNF516 (GeneID 9658) | SID364005624 | 0.12 | 1.59 | 0.145 | 0.109 | 0.0893
ZNF516 (GeneID 9658) | SID364005624 | -0.192 | 1.35 | -0.00535 | -0.374 | -0.217
UBE2J1 (GeneID 51465) | SID363999800 | 0.204 | 2.89 | 0.277 | 0.146 | 0.0594
TMEM108 (GeneID 66000) | SID364002667 | -0.186 | 2.6 | -0.0875 | -0.408 | -0.038
IQCB1 (GeneID 9657) | SID363999006 | -0.789 | 2.36 | -0.605 | -0.847 | -0.567
TOR1A (GeneID 1861) | SID363991449 | 0.153 | 1.99 | 0.143 | 0.372 | -0.24
PRMT5 (GeneID 10419) | SID363996950 | 0.0405 | 3.33 | 0.0604 | 0.0528 | -0.052
GPER1 (GeneID 2852) | SID363992763 | -0.171 | 2.41 | 0.104 | 0.0488 | -0.731
PCDHB8 (GeneID 56128) | SID364001417 | -0.345 | 2.92 | -0.15 | -0.542 | -0.496
CDC27 (GeneID 996) | SID363992541 | 0.347 | 1.04 | 0.337 | 0.566 | -0.0985
MAP2 (GeneID 4133) | SID363993554 | -0.667 | 3.84 | -0.625 | -0.599 | -0.613
MRPS35 (GeneID 60488) | SID364002201 | -0.772 | 2.18 | -0.531 | -0.668 | -0.674
NOL9 (GeneID 79707) | SID364002949 | 0.655 | 1.41 | 0.774 | 0.758 | 0.394
S1PR4 (GeneID 8698) | SID363994839 | 0.698 | 2.13 | 0.661 | 0.743 | 0.632
LCOR (GeneID 84458) | SID363999624 | -0.419 | 3.09 | -0.346 | -0.498 | -0.511
LCOR (GeneID 84458) | SID364003985 | 0.567 | 2.92 | 0.543 | 0.739 | 0.336
ATXN10 (GeneID 25814) | SID363998360 | -0.28 | 2.38 | -0.417 | -0.351 | -0.186
CAPN3 (GeneID 825) | SID363991407 | -0.213 | 2.42 | -0.309 | -0.0976 | -0.328
SPRR2B (GeneID 6701) | SID363997697 | -0.196 | 2.35 | 0.0485 | -0.438 | -0.0209
GUCA1C (GeneID 9626) | SID363996364 | -0.0893 | 2.12 | -0.0561 | -0.255 | -0.255
TAF4 (GeneID 6874) | SID363994321 | 0.268 | 1.2 | 0.461 | 0.143 | 0.267
CD320 (GeneID 51293) | SID364000209 | 0.00836 | 2.23 | 0.164 | 0.0752 | -0.193
BACH2 (GeneID 60468) | SID364002194 | 0.232 | 2.92 | 0.386 | 0.206 | -0.523
RPAP3 (GeneID 79657) | SID364002907 | 0.474 | 4.04 | 0.488 | 0.594 | 0.299
SNX14 (GeneID 57231) | SID364001716 | -0.753 | 3.53 | -0.609 | -0.681 | -0.72
PCGF1 (GeneID 84759) | SID364004119 | 0.446 | 1.35 | 0.388 | 0.447 | 0.463
SNRPC (GeneID 6631) | SID363994237 | -0.58 | 4.66 | -0.518 | -0.578 | -0.632
RTN4 (GeneID 57142) | SID363997743 | -0.202 | 1.57 | -0.12 | -0.241 | -0.349
CCNG2 (GeneID 901) | SID363995340 | -0.336 | 2.13 | -0.352 | -0.403 | -0.478
CD79A (GeneID 973) | SID363993002 | -0.322 | 2.53 | -0.341 | -0.214 | -0.499
ENTR1 (GeneID 10807) | SID363997431 | -0.379 | 2.83 | -0.258 | -0.449 | -0.493
LGR4 (GeneID 55366) | SID364001116 | 0.723 | 1.44 | 0.669 | 0.781 | 0.634
